# The other results are listed elsewhere or left out. The main result of the screen is listed elsewhere. These columns were measured beside it and carry no call. The list favours compounds with an active or inconclusive main result. Potencies come from curve fits of mixed quality, noted in brackets.
# Experiment: qHTS Assay to Find Inhibitors of Chronic Active B-Cell Receptor Signaling
# Details: ABC-DLBCL IkBa-CBG/CBR reporter, luminescence ratio (green luciferase fused to IkBa over red control in TMD8 lymphoma cells), 4 h
# Procedure, shortened: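 Concentration-response series (up to 46 uM) were applied to TMD8 dual-reporter cells for 4 h at 37C with doxycycline. Green/red ratio, after filter-overlap correction, defined %Activity; red signal alone was normalised to basal cells and zero luminescence.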
# [1] = measured here: CBR red luminescence, cell number
# [2] = measured here: IkBa-CBG green luminescence
Compound,AC50 [1],AC50 [2]
COc1ccc2nc(NC(=O)c3sc4nc(C)cc(C)c4c3N)sc2c1,"35.5 µM [falling, single point]",
CCCCC(c1nnnn1CCOC)N1CCN(C(=O)c2ccco2)CC1 (configuration not stated),"6.51 µM [rising, single point]",
CCC(C(=O)Nc1ncc(C)s1)c1ccccc1 (configuration not stated),"7.08 µM [falling, partial curve, poor fit]",
CCOC(=O)C1=CC[C@H]2c3c(c4ccccc4n3C)C(=O)C1N2S(=O)(=O)c1ccc(C)cc1,"18.4 µM [falling, single point]",
O=C1/C(=C/c2ccco2)SC(=S)N1CC1CCCO1 (configuration not stated),"3.98 µM [rising, partial curve, poor fit]",
Cc1ccc(N(CCC#N)C(=O)CSc2nnc3ccccn23)cc1,"23.1 µM [rising, partial curve, poor fit]",
CCCc1nn(CCc2ccccn2)c(N)c1CC,"8.2 µM [rising, partial curve, poor fit]",
NS(=O)(=O)c1ccc(NC(=S)NC(=O)c2cccs2)cc1,"20 µM [falling, partial curve, poor fit]",
Cc1ccc(S(=O)(=O)NCCC(=O)Nc2cccc(S(=O)(=O)N3CCCC3)c2)cc1C,"18.4 µM [falling, partial curve, poor fit]",
CCC(C)N(CC(=O)Nc1cccc(C)c1C)C(=O)CCl (configuration not stated),"20 µM [falling, single point]",
Cc1oc(C(=O)Nc2ccc(C(=O)O)cc2)cc1COc1ccccc1,"0.0259 µM [rising, full curve, poor fit]",
CCOc1ccccc1C1C(C#N)=C(N)Nc2onc(-c3ccccc3)c21 (configuration not stated),"35.5 µM [falling, single point]",
O=C(OCC(=O)N1CCc2ccccc2C1)c1cccs1,"10 µM [falling, single point]",
O=C(Nc1cc(Cl)cc(Cl)c1)C1C2C=CC3(O2)C1C(=O)N(CCCN1CCOCC1)C3C(=O)NC1CCCCC1 (configuration not stated),"7.08 µM [rising, full curve, poor fit]",
COc1cccc(NC(=O)CSc2nc(C)cs2)c1,"0.366 µM [falling, full curve, poor fit]",
C=CCn1c(Cc2ccc(OC)cc2)nnc1SCC(N)=O,"1.64 µM [rising, partial curve, poor fit]",
O=C(O)c1ccc(CS(=O)(=O)c2cccc(C(F)(F)F)c2)o1,"3.16 µM [rising, single point]",
CN(C(=O)c1cc2ccccc2o1)c1c(N)n(Cc2ccccc2)c(=O)[nH]c1=O,"6.51 µM [rising, partial curve, poor fit]",
COc1ccc2oc(C(=O)OCC(=O)NC(=O)c3ccccc3)c(C)c2c1,"35.5 µM [rising, single point]",
O=C(N/N=C/c1cccs1)c1cncc(Br)c1,"22.4 µM [falling, partial curve]","35.5 µM [falling, single point]"
N#Cc1ccsc1NC(=O)COC(=O)c1ccc2ccccc2c1,"1.84 µM [rising, partial curve, poor fit]",
c1ccc(-n2ncc3c2ncn2c(C4CCCCC4)nnc32)cc1,"0.501 µM [rising, full curve, poor fit]",

# Quoted from the listing:
# AC50 [1] with Cc1ccc(S(=O)(=O)NCCC(=O)Nc2cccc(S(=O)(=O)N3CCCC3)c2)cc1C is entered as 18.4 µM [falling, partial curve, poor fit]
# AC50 [1] with COc1ccc2oc(C(=O)OCC(=O)NC(=O)c3ccccc3)c(C)c2c1 is entered as 35.5 µM [rising, single point]
# AC50 [1] with O=C(Nc1cc(Cl)cc(Cl)c1)C1C2C=CC3(O2)C1C(=O)N(CCCN1CCOCC1)C3C(=O)NC1CCCCC1 (configuration not stated) is entered as 7.08 µM [rising, full curve, poor fit]
# AC50 [1] with CCC(C(=O)Nc1ncc(C)s1)c1ccccc1 (configuration not stated) is entered as 7.08 µM [falling, partial curve, poor fit]

# Continuation.

Compound,AC50 [1],AC50 [2]
CCOc1cc(C(=O)Nc2ccc(N3CCN(S(C)(=O)=O)CC3)cc2)cc(OCC)c1OCC,"2.06 µM [rising, partial curve, poor fit]",
Cn1c(=O)[nH]c(=O)c2c1nc(N/N=C/C(Br)=C/c1ccccc1)n2CCO,"14.1 µM [rising, partial curve, poor fit]",
COc1ccc(CCNC(=O)CSc2nn3c(=O)c(C)nnc3s2)cc1OC,"7.08 µM [rising, full curve, poor fit]",
CCN(CC)CCNC(=O)CCCCn1c(=S)[nH]c2c([nH]c3ccc(OC)cc32)c1=O,"11.2 µM [falling, partial curve, poor fit]",
CC(/C=C/c1ccco1)=N\NC(=O)c1cccc(Cl)c1,"0.146 µM [falling, full curve, poor fit]",
Cc1cc(-c2nnnn2-c2ccc(F)cc2)no1,"0.631 µM [rising, full curve, poor fit]",
CCC(CC)C(=O)NCCc1cc2cc(C)c(C)cc2[nH]c1=O,"6.51 µM [falling, single point]",
Cc1cc2oc(=O)cc(COC(=O)c3n[nH]c4ccccc34)c2cc1C,"3.26 µM [falling, full curve]",
COc1ccc(C(C)=O)cc1COC(=O)CCC(=O)c1cccs1,"5.17 µM [falling, single point]",
CCSc1nc2sc3c(c2c(=O)n1CC)CCC3,"35.5 µM [rising, single point]",
O=S(=O)(NCCCN1CCOCC1)c1ccc2ccccc2c1,"3.16 µM [falling, full curve, poor fit]",
CCOc1cc(/C=N/NC(=O)CN2CCOCC2)ccc1OCc1ccc(Cl)cc1,"6.51 µM [rising, single point]",
Cc1ccc(CCNC(=O)C2CCN(S(=O)(=O)c3ccc4c(c3)NC(=O)C(C)S4)CC2)cc1 (configuration not stated),"15.8 µM [falling, single point]",
CC(C)c1cc(=O)n2c(nc3ccccc32)[nH]1,"6.31 µM [falling, partial curve]",
Cc1ccc(-c2nc(CS(=O)CC(=O)NCc3ccccn3)c(C)o2)cc1 (configuration not stated),"6.51 µM [falling, single point]",
CN(C)S(=O)(=O)c1cccc(NC(=O)COC(=O)c2cccn2C)c1,"11.2 µM [falling, partial curve]",
O=C(OCC(=O)N1CCCCC1)c1cccs1,"29.1 µM [rising, single point]",
CC(=O)c1cccc(NC(=S)NC(=O)c2ccccc2C)c1,"1.12 µM [falling, full curve]",
O=C(CSc1cccc[n+]1[O-])c1ccc(Cl)s1,"5.01 µM [falling, full curve]","2 µM [falling, full curve]"
Cc1ccc(C(=O)NCC(=O)NCC(=O)OCC(=O)c2ccc(Br)cc2)cc1,"29.1 µM [rising, single point]",
COc1ccc(/C=C2\SC(=S)N(CCC(=O)Nc3cccc(O)c3)C2=O)cc1OC,"14.1 µM [falling, single point]",
CCc1nc2oc3cc(OC)ccc3c(=O)c2c(=O)n1-c1ccccc1,"0.366 µM [falling, full curve]",

Compound,AC50 [1],AC50 [2]
CCOc1ccc(/C=N/n2c(SC)nnc(C(C)(C)C)c2=O)cc1,"6.31 µM [falling, single point]",
Cc1ccc(NC(=O)COc2ccccc2C=O)cc1Cl,"31.6 µM [falling, single point]",
NNC(=O)c1cc(Br)cs1,"8.2 µM [falling, partial curve]",
O=C(CSc1nnc(CN2CCOCC2)n1-c1ccccc1)Nc1ccc(Cl)cc1,"18.4 µM [falling, partial curve, poor fit]",
CC1CCCCN1CC(=O)Nc1ccccc1Sc1ccccc1 (configuration not stated),"29.1 µM [rising, single point]",
Cc1ccc(N=C2SC(C(=O)Nc3ccc(OC(F)(F)F)cc3)C(N)=C2C(=O)Nc2c(C)cc(C)cc2C)cc1 (configuration not stated),"20.6 µM [falling, single point]",
COc1cc(OC)cc(C(=O)NCc2ccc3c(c2)CCN3C(=O)c2ccccc2)c1,"35.5 µM [rising, single point]","11.2 µM [falling, partial curve]"
CCn1c(SCC(=O)O)nc2sc3c(c2c1=O)CCC3,"25.9 µM [falling, partial curve, poor fit]",
O=C(O)CCCC(=O)Nc1ccc(N=Nc2ccccc2)cc1,"14.1 µM [falling, partial curve, poor fit]",
Cc1oc2c(c(C)cc3oc(=O)c(CC(=O)N[C@@H](CC(C)C)C(=O)O)c(C)c32)c1C,"5.01 µM [falling, full curve, poor fit]",
COC(=O)c1cnc(SCC(=O)c2ccccc2)n1C,"35.5 µM [falling, single point]",
CCCCn1nc2cc(C(=O)NCCc3cccs3)ccc2c1OCC,"1.46 µM [rising, full curve]",
CCN(CC)S(=O)(=O)c1ccc(C(=O)NCc2n[nH]c(=S)n2-c2ccccc2OC)cc1,"2.51 µM [falling, full curve]",
CN(C)S(=O)(=O)c1ccc(NC(=O)CN2CCCc3ccccc32)cc1,"14.1 µM [rising, single point]",
COc1ccc(C(=O)c2nc3c(n2O)CCCCC3)cc1,"6.51 µM [falling, partial curve]",
CCc1[nH]nc2c1C1(CCN(C(=O)OCc3ccccc3)CC1)C(C#N)=C(N)O2,"2.59 µM [falling, partial curve, poor fit]",
Cc1cc(C(=O)N/N=C/c2ccc[nH]2)no1,"13 µM [falling, single point]",
Cc1ccccc1C(=O)NC(=S)N(C)CCc1ccccn1,"22.4 µM [falling, partial curve, poor fit]",
COc1cccc(CNC(=O)c2n[nH]c3ccccc23)c1,"17.8 µM [falling, partial curve, poor fit]",
O=C(N/N=C/c1c[nH]c2ccccc12)c1cc(-c2ccc3ccccc3c2)n[nH]1,"8.2 µM [rising, partial curve, poor fit]",

# — PubChem BioAssay AID493014 (National Center for Advancing Translational Sciences (NCATS), 2011)
